Results on one molecule are retold here after US20260201000A1.

Protein sequences, listed by entry. Tags and fused reporters are not part of them. Lines headed by an entry give the natural chain unless they say otherwise; changes in a name come on top.
UniProt P01031: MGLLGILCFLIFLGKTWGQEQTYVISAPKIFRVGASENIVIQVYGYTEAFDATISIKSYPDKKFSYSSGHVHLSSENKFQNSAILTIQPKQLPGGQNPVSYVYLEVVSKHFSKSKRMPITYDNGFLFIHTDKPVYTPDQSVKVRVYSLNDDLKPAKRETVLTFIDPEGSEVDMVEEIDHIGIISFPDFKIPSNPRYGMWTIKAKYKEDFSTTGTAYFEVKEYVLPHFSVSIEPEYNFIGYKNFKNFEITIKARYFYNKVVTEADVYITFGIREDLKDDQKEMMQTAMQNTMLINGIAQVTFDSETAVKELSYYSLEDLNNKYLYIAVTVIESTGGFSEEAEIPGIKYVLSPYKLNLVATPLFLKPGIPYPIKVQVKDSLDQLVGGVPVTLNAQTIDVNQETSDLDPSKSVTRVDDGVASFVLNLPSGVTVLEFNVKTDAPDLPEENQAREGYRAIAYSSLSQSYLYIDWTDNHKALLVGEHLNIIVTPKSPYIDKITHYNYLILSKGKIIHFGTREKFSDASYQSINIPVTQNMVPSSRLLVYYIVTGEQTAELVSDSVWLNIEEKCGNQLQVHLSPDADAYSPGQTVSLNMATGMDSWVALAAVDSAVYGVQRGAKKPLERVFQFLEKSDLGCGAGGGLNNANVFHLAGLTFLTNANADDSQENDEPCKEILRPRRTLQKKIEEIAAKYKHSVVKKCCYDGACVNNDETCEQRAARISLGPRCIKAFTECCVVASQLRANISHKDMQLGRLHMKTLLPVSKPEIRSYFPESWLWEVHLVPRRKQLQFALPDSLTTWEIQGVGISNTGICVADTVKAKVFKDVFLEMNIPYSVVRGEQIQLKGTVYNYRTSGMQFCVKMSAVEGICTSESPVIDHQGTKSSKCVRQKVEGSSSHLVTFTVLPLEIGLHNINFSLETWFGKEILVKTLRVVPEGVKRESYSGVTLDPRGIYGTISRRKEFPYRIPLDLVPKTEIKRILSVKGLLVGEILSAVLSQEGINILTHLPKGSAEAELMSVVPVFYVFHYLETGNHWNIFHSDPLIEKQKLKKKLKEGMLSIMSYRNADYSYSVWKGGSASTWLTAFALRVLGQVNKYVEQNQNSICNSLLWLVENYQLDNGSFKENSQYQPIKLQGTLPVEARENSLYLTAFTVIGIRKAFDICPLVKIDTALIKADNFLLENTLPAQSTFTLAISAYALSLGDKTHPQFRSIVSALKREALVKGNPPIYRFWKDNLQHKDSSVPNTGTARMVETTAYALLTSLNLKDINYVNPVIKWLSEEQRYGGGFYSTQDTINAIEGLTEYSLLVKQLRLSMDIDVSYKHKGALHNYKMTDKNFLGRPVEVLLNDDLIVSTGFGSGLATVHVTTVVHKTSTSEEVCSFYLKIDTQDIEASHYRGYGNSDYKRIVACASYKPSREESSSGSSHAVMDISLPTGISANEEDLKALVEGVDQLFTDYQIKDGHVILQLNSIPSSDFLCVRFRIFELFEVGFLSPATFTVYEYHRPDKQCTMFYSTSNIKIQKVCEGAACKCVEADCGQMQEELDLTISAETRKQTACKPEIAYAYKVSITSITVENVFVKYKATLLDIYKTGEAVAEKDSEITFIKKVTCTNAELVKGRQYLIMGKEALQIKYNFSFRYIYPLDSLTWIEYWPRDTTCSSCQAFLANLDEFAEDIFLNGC

Results are given in words; binding and its absence hold for the method and conditions named. Some binding calls cover weakened binding; strength is not graded here.

For test [1], the target named is complement C5 (C5 antigen, Complement Technology, A120) (human) (UniProt P01031). The experiment in a line: BLI (ForteBio Octet K2): antibody at 10 ug/mL loaded on anti-human IgG Fc sensor, C5 at 10 ug/mL, association 180 s, dissociation 500 s in pH7.4 or pH5.4 buffer. On the technique in general: In BLI a coated tip is dipped into the sample, and binding shifts an interference pattern.

The target is the same in test [2]. The experiment in a line: BLI (ForteBio Octet K2): antibody at 10 µg/mL loaded on anti-human IgG Fc sensor in neutral pH buffer, C5 antigen at 10 µg/mL, association 180 s, dissociation 500 s in pH7.4 buffer or pH5.4 buffer.

B1: C5 antibody phAb (anti-human C5 antibody with pH-dependent dissociation properties) (antibody, human IgG4 S228P, kappa, V domains shown)
VH: QVQLVQSGAEVKKPGASVKVSCKASGYTFTNYGMNWVRQAPGQGLEWMGWINTYTGEPTYADDFKGRFTFTLDTSTSTAYLELSSLRSEDTAVYYCARTKVPHYFAYAMDYWGQGTLVTVSS
VL: DIVLTQSPSSLSASVGDRVTITCKASQSVDYHGDSYLNWYQQKPGKPPKLLIYAASNLESGIPSRFSGSGSGTDFTLTISSLQPEDFATYYCQQSNEDPSTFGGGTKLEIKR
As to B1, the binding entry in test [1] and in test [2] was “binds” each time.
